Protein sequences, listed by entry. Tags and fused reporters are not part of them. Lines headed by an entry give the natural chain unless they say otherwise; changes in a name come on top.
UniProt Q9WVT6: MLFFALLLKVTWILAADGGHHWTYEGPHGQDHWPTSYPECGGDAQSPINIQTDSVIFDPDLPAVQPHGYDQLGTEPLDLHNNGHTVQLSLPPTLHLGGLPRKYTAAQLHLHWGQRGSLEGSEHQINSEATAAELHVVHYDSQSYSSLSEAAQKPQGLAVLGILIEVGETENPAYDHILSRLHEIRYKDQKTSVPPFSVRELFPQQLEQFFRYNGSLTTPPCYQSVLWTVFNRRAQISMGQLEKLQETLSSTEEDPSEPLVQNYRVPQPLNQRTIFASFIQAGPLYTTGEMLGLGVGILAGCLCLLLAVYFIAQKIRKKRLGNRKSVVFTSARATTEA
UniProt Q9Z2Q6: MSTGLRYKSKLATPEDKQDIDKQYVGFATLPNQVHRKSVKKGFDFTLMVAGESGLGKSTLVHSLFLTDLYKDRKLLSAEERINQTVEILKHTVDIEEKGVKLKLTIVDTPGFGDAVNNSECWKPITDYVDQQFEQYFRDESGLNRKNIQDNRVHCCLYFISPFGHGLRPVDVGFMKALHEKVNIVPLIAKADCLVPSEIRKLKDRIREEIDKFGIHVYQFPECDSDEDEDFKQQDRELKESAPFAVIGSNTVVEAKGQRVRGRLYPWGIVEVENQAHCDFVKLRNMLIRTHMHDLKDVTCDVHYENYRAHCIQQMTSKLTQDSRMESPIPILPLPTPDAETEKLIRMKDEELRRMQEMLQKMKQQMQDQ
UniProt Q9Z2Q5: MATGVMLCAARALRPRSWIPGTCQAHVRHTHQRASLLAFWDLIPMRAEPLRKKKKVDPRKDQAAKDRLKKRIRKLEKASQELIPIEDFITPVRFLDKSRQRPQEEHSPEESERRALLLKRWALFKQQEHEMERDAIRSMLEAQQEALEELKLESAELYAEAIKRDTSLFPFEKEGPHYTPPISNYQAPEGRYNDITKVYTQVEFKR
UniProt Q9Z210: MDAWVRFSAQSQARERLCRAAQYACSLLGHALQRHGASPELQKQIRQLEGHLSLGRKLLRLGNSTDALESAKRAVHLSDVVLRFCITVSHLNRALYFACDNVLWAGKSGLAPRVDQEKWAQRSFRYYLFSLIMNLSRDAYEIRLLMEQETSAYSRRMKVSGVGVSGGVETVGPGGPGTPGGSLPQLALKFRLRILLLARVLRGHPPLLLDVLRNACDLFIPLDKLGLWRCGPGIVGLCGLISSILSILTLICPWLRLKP
UniProt Q9WVM3, whole entry: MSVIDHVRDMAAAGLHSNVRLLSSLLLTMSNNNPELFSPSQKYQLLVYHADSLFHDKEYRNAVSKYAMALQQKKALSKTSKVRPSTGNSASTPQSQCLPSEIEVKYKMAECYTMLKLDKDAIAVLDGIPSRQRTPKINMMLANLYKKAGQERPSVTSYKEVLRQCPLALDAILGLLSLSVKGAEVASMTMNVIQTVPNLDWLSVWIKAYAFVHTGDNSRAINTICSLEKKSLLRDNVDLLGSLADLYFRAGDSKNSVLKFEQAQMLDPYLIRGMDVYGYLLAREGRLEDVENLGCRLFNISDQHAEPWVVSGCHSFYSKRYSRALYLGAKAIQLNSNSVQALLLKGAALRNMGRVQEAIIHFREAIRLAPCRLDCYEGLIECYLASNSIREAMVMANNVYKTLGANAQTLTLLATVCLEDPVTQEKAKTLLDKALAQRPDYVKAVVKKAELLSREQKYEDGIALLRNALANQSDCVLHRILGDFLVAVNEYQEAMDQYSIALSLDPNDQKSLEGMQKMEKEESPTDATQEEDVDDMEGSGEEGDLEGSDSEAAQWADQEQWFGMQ
UniProt Q9Z1F9: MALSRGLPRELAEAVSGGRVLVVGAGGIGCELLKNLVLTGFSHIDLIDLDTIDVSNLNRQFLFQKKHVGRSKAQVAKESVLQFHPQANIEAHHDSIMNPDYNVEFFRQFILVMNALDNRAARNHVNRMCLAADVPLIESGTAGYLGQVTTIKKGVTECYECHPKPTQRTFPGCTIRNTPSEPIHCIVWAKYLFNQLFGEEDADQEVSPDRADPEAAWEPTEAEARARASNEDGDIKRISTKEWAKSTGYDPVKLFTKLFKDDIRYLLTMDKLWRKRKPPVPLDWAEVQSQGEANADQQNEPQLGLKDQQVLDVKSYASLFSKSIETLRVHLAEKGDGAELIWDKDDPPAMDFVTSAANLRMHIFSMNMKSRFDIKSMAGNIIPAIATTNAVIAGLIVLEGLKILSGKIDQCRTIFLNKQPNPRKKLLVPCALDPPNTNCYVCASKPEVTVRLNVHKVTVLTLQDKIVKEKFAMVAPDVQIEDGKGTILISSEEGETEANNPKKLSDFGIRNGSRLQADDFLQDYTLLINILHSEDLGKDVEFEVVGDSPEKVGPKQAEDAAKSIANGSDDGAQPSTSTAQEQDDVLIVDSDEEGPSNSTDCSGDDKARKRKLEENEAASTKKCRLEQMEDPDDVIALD
UniProt Q9Z1G3, whole entry: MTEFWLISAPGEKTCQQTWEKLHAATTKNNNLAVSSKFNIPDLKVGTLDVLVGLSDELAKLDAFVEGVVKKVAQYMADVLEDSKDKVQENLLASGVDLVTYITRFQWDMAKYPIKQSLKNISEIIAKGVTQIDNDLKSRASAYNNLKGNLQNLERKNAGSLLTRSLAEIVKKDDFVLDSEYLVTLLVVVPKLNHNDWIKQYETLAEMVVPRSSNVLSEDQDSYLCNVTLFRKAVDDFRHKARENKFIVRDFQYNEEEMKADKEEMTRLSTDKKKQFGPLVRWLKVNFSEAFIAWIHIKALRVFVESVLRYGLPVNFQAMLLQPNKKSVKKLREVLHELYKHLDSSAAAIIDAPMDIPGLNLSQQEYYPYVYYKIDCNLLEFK
UniProt Q9WVL1: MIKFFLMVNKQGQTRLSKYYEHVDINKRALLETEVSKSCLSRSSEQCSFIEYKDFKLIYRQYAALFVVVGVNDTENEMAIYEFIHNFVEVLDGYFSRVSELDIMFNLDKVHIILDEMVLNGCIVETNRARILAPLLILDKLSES
UniProt Q9Z2Y8: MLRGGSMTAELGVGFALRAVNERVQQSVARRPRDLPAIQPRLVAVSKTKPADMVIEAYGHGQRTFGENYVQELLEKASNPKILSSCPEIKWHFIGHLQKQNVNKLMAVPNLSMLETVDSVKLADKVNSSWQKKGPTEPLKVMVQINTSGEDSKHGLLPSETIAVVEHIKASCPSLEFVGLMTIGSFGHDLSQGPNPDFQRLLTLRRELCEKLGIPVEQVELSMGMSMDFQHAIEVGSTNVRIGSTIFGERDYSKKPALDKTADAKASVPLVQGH
UniProt Q9Z0G0: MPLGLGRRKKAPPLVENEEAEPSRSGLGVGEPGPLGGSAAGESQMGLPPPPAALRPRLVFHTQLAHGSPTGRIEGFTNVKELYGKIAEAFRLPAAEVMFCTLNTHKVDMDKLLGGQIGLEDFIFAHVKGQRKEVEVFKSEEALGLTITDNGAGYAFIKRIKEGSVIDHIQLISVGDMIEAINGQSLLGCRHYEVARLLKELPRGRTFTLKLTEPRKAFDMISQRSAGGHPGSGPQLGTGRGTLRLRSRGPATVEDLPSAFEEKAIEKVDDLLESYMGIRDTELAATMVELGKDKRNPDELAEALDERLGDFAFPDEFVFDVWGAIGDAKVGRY
UniProt Q9Z1N9: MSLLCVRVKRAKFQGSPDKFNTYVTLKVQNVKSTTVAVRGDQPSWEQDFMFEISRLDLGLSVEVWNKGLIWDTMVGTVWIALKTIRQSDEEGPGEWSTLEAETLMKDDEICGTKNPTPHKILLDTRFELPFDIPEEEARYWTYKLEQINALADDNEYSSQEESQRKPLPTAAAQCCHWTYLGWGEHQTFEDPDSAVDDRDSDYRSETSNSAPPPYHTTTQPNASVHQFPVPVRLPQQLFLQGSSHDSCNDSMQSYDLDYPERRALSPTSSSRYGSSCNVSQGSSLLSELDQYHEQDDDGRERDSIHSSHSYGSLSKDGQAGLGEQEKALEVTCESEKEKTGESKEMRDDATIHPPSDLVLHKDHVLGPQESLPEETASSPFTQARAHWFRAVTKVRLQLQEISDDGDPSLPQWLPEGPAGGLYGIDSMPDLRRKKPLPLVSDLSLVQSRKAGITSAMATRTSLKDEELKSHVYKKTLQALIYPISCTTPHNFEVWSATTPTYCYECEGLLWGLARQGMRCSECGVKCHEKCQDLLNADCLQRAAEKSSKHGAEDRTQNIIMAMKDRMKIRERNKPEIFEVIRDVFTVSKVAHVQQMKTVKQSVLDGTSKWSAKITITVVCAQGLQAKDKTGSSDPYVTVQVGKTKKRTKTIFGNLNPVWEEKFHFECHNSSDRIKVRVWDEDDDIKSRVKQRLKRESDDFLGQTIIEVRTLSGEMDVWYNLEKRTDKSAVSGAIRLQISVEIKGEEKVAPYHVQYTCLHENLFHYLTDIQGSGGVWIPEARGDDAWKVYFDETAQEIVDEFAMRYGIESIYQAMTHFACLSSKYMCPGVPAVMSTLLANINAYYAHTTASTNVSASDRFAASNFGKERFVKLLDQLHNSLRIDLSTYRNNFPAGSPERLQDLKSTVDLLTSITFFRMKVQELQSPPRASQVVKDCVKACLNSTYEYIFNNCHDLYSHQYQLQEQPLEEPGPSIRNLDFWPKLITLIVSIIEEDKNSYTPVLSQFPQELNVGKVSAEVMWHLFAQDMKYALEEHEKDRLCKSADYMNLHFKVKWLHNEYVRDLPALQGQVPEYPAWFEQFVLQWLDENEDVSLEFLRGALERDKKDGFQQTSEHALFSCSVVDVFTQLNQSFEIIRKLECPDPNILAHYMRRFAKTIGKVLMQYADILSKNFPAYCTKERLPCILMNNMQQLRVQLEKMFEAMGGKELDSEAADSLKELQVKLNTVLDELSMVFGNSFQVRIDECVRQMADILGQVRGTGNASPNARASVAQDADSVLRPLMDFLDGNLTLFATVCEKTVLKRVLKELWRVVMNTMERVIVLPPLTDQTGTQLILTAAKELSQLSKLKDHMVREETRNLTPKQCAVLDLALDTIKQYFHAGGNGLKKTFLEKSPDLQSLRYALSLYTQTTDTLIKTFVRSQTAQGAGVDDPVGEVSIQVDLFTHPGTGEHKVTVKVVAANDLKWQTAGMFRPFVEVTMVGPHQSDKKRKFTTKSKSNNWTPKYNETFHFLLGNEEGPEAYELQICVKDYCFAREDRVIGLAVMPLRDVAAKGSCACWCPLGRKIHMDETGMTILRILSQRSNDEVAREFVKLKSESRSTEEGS
UniProt Q9Z2V4, whole entry: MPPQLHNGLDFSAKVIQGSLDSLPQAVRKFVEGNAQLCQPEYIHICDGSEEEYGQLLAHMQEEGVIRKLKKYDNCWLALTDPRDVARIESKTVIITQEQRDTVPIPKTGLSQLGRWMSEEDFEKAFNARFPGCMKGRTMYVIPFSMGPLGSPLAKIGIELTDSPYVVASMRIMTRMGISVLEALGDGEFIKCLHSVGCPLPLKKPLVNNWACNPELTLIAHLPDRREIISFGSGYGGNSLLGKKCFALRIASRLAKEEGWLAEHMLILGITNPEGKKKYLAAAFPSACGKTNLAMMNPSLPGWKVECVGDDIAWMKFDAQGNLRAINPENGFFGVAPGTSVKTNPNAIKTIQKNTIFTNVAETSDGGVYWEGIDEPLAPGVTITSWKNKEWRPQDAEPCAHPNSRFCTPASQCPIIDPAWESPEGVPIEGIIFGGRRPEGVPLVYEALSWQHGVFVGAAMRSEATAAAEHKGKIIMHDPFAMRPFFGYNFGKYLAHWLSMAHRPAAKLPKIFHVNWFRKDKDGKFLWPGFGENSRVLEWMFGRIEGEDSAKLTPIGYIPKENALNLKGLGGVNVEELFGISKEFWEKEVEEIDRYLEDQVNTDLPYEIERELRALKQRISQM
UniProt Q9Z2G9: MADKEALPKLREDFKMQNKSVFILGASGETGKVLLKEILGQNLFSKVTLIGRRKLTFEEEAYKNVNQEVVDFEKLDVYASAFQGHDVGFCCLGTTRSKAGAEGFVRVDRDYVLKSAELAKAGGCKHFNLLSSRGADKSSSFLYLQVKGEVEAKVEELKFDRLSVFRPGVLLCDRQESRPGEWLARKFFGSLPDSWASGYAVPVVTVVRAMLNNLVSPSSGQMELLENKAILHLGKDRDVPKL
UniProt Q9Z2I9: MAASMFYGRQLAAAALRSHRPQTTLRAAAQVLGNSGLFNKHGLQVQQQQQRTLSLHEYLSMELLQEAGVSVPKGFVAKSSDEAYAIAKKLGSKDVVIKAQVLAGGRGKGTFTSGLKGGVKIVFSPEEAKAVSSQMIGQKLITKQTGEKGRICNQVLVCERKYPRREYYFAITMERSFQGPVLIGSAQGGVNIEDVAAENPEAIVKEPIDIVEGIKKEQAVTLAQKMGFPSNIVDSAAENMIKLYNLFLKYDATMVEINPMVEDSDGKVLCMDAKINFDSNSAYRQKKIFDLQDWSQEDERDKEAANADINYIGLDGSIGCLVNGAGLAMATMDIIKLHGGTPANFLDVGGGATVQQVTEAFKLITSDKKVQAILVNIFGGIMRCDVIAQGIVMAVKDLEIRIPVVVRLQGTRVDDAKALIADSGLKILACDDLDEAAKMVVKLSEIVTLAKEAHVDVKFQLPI

The list shows a part of the results. Most entries show no effect beyond the scatter of the controls.
These targets were tested with CN[C@@H]1C[C@H]2O[C@@](C)([C@@H]1OC)n1c3ccccc3c3c4c(c5c6ccccc6n2c5c31)C(=O)NC4 [staurosporine] (assay: log2 fold change of tryptic peptide abundance, ligand vs vehicle (limited proteolysis) (log2 ratio); higher = more trypsin-susceptible (destabilized)). Conditions: ligand concentration: 20 uM; sample: mouse liver crude lysate; replicate design: treated separately.
“UniProt Q9WVT6 (peptide sequence: SVVFTSAR, peptide start residue: 325)” was tested, and the log2 fold change was -0.173. For “UniProt Q9Z2Q6 (peptide sequence: MKDEELR, peptide start residue: 347)”, the log2 fold change was 0.289. Target “UniProt Q9Z205 (peptide sequence: FLLDWGADPHILAK, peptide start residue: 151)” has a log2 fold change of -0.807. Work on “UniProt Q9Z2Q5 (peptide sequence: VYTQVEFKR, peptide start residue: 198)” yielded a log2 fold change of 0.793. Target “UniProt Q9Z1A9 (peptide sequence: RPLPHPEPLTAVFQQSGSQSPDSR, peptide start residue: 444)” has a log2 fold change of 0.369. In the case of “UniProt Q9Z210 (peptide sequence: HGASPELQK, peptide start residue: 35)”, the log2 fold change was -0.637. In the case of “UniProt Q9WVM3 (peptide sequence: EQKYEDGIALLR, peptide start residue: 455)”, the log2 fold change was 0.229. In the case of “UniProt Q9Z188 (peptide sequence: ISPLGALQHGFFR, peptide start residue: 420)”, the log2 fold change was -0.607. Work on “UniProt Q9Z1F9 (peptide sequence: LFKDDIR, peptide start residue: 258)” yielded a log2 fold change of 0.31. “UniProt Q9Z1G3 (peptide sequence: TCQQTWEK, peptide start residue: 14)” showed a log2 fold change of -0.785. With “UniProt Q9WVL1 (peptide sequence: YYEHVDINKR, peptide start residue: 19)” the log2 fold change was 0.105. “UniProt Q9Z129 (peptide sequence: LIYVTPEK, peptide start residue: 186)” was tested, and the log2 fold change was -0.165. “UniProt Q9Z1Q2 (peptide sequence: ALMPVLLQGQAR, peptide start residue: 232)” showed a log2 fold change of -0.32. For “UniProt Q9Z2V6 (peptide sequence: QHEVQLQK, peptide start residue: 108)”, the log2 fold change was -0.436. “UniProt Q9Z1J3 (peptide sequence: KVYFHTDAAQAVGK, peptide start residue: 228)” showed a log2 fold change of -0.205. Work on “UniProt Q9Z2I0 (peptide sequence: ALGVTEDR, peptide start residue: 385)” yielded a log2 fold change of -0.16. Target “UniProt Q9Z2Y8 (peptide sequence: IGSTIFGER, peptide start residue: 242)” has a log2 fold change of -0.291. “UniProt Q9WVS6 (peptide sequence: ILGEEQYTR, peptide start residue: 305)” showed a log2 fold change of 0.269. In the case of “UniProt Q9Z1T1 (peptide sequence: EDGGLEDNEK, peptide start residue: 262)”, the log2 fold change was 0.598. “UniProt Q9Z351 (peptide sequence: DRVFSSPRGMAAK, peptide start residue: 413)” showed a log2 fold change of -0.482. “UniProt Q9WVJ9 (peptide sequence: CINHYGGYLCLPR, peptide start residue: 71)” showed a log2 fold change of 0.00553. “UniProt Q9Z0G0 (peptide sequence: DTELAATMVELGKDKR, peptide start residue: 280)” was tested, and the log2 fold change was 0.187. In the case of “UniProt Q9Z1N9 (peptide sequence: VAHVQQMK, peptide start residue: 590)”, the log2 fold change was -0.285. “UniProt Q9Z2B5 (peptide sequence: LHDGNHYVNK, peptide start residue: 824)” showed a log2 fold change of -0.282. For “UniProt Q9Z280 (peptide sequence: IVDETDMK, peptide start residue: 540)”, the log2 fold change was -0.0622. “UniProt Q9Z2V4 (peptide sequence: LTPIGYIPK, peptide start residue: 552)” showed a log2 fold change of 0.0941. Target “UniProt Q9Z2G9 (peptide sequence: SKAGAEGFVR, peptide start residue: 97)” has a log2 fold change of -0.35. With “UniProt Q9Z2I9 (peptide sequence: GRICNQVLVCERK, peptide start residue: 149)” the log2 fold change was -0.284. “UniProt Q9Z1Q5 (peptide sequence: NSNPALNDNLEK, peptide start residue: 120)” showed a log2 fold change of 0.219. Work on “UniProt Q9Z2C4 (peptide sequence: VAGGASASSR, peptide start residue: 35)” yielded a log2 fold change of -0.0811. “UniProt Q9Z110 (peptide sequence: GQDHVVSDFSEHGSLK, peptide start residue: 766)” gave a log2 fold change of -0.477.

Reference: the supplement of paper PMC12819154, “High-throughput peptide-centric local stability assay extends protein–ligand identification to membrane proteins, tissues and bacteria” (Nature Structural & Molecular Biology, 2025)
